± gives the standard deviation of the averaged measurements. This is one part of the list.
Compound: Nc1nc2c(ncn2[C@@H]2O[C@H](COP(=O)(O)OP(=O)(O)OP(=O)(O)O)[C@@H](O)[C@H]2O)c(=O)[nH]1 [guanosine triphosphate]
Assay: NP40-soluble protein abundance relative to vehicle (solubility fold change) (ratio); higher = more soluble protein in presence of GTP
Method in brief: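 In three independent experiments, Jurkat crude lysate made by Dounce homogenisation was treated for 10 min at room temperature and then 3 min at 37 °C with eight concentrations ranging from 0.1 to 10 mM. It was then solubilised with 0.8% NP40 plus benzonase for 60 min at 4 °C and ultracentrifuged. The supernatant was TMT-labelled for LC-MS/MS, and each value is the fold change against the detergent-processed vehicle for the same replicate, using vsn-normalised intensities.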

Chains of the proteins cited; added tags and fusions are not shown. Lines headed by an entry give the natural chain unless they say otherwise; changes in a name come on top.
UniProt Q8WU10: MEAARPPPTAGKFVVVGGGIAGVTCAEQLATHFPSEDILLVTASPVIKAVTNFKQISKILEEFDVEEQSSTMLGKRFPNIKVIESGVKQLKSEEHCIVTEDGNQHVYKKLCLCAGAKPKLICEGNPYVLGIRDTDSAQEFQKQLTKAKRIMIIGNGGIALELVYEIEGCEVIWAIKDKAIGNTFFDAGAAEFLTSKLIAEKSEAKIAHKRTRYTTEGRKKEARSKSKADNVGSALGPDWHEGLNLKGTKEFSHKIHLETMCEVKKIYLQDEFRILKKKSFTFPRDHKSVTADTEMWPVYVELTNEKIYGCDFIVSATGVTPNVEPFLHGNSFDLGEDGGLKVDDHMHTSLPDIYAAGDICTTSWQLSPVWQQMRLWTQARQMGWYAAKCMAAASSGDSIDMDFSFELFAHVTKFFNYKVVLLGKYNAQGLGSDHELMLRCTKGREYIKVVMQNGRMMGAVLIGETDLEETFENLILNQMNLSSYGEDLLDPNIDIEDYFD
UniProt Q8NFY9: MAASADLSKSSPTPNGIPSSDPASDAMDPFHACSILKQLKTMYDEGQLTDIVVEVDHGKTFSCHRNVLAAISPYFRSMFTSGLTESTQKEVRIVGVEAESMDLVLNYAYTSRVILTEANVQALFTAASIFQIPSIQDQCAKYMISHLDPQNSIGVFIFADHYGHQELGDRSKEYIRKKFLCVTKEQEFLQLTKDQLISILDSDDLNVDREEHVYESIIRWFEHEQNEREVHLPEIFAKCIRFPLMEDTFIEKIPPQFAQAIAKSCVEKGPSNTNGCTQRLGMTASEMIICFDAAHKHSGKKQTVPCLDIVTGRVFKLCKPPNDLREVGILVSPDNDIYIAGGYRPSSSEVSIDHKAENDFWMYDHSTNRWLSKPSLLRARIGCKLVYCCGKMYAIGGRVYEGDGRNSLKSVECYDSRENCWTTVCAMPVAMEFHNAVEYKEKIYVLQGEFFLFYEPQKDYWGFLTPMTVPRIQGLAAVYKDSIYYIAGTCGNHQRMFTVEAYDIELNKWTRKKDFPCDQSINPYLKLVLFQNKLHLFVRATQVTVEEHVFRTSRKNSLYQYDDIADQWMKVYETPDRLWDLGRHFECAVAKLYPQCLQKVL
UniProt Q8TBM8: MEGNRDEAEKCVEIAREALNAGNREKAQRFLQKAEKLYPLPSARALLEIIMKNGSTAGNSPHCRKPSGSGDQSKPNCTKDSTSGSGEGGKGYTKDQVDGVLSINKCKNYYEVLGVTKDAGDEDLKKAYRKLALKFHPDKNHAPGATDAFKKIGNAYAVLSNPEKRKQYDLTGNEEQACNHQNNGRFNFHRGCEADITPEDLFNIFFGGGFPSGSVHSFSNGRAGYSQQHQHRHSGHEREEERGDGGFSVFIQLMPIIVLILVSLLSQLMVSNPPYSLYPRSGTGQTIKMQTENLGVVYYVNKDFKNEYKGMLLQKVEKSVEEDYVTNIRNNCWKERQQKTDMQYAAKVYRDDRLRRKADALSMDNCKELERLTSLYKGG
UniProt Q8N584: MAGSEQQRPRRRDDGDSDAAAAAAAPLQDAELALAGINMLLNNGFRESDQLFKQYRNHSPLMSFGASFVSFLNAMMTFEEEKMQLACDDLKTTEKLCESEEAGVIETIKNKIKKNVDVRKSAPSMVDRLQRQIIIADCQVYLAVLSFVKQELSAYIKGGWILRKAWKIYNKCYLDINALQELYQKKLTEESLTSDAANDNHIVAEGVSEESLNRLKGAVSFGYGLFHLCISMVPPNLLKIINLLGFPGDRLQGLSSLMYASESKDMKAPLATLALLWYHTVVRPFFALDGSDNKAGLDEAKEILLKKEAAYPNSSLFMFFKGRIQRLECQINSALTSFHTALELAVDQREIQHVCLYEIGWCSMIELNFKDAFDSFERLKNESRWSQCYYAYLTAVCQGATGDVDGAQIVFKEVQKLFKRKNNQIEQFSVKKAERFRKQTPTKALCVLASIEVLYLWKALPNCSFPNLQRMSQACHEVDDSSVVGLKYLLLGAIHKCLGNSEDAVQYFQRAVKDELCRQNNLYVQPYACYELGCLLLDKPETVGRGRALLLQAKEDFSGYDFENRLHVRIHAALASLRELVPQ
UniProt Q96MW1: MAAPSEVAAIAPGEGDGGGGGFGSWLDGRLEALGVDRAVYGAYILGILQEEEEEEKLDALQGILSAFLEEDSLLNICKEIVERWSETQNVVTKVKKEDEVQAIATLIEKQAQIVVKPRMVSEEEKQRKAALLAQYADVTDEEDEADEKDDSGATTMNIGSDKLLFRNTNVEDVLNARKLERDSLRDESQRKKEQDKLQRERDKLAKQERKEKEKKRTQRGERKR
UniProt Q8TD19: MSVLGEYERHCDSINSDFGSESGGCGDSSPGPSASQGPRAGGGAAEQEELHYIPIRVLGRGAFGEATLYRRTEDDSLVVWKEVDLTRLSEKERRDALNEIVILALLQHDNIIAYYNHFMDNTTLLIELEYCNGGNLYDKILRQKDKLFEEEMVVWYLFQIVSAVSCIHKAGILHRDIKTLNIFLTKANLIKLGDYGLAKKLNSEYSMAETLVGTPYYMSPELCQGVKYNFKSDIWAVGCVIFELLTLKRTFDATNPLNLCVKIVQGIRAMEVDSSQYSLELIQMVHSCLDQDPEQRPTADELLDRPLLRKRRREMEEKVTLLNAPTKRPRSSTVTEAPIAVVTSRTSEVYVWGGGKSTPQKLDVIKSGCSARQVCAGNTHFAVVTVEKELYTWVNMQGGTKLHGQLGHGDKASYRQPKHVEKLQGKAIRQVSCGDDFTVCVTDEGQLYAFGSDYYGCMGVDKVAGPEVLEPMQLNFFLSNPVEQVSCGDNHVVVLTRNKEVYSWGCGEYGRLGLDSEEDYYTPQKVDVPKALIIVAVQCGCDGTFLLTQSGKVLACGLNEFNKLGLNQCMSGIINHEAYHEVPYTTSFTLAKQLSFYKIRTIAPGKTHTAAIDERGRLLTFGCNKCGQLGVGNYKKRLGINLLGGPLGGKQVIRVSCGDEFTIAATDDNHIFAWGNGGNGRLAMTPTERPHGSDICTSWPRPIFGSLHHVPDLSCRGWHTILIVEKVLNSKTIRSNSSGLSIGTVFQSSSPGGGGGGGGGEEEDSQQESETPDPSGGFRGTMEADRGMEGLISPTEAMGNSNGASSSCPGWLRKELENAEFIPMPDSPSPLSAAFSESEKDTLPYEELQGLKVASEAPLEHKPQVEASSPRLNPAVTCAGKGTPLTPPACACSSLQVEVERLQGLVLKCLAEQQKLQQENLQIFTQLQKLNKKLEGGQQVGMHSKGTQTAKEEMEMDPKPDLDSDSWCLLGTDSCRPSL
UniProt Q8TB37: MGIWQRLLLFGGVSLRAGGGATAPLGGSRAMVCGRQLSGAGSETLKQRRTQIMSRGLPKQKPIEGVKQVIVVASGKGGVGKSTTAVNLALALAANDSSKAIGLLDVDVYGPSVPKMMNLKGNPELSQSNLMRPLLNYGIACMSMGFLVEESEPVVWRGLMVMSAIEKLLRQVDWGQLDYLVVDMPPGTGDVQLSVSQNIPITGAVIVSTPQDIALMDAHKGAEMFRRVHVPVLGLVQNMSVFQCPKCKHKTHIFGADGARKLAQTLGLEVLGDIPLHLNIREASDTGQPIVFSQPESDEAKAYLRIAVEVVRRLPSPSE
UniProt Q8N1B4: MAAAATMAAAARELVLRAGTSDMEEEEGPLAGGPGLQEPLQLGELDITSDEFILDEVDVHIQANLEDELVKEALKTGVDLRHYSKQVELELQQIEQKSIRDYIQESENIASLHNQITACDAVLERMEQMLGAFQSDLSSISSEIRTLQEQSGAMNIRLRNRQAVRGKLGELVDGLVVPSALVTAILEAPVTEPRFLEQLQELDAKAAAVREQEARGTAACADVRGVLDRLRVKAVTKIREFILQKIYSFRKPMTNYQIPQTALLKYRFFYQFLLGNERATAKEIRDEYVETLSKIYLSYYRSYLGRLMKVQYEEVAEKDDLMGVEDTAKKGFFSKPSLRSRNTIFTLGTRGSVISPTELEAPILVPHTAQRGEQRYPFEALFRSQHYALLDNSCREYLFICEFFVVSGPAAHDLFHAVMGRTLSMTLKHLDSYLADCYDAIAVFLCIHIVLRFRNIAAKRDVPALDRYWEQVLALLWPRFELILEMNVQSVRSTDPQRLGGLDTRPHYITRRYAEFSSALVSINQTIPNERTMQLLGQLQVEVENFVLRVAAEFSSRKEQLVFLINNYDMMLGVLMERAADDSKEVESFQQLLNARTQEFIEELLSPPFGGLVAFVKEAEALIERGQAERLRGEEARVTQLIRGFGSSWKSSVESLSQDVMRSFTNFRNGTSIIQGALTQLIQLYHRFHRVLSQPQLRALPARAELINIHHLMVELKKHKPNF
UniProt Q8N6R0: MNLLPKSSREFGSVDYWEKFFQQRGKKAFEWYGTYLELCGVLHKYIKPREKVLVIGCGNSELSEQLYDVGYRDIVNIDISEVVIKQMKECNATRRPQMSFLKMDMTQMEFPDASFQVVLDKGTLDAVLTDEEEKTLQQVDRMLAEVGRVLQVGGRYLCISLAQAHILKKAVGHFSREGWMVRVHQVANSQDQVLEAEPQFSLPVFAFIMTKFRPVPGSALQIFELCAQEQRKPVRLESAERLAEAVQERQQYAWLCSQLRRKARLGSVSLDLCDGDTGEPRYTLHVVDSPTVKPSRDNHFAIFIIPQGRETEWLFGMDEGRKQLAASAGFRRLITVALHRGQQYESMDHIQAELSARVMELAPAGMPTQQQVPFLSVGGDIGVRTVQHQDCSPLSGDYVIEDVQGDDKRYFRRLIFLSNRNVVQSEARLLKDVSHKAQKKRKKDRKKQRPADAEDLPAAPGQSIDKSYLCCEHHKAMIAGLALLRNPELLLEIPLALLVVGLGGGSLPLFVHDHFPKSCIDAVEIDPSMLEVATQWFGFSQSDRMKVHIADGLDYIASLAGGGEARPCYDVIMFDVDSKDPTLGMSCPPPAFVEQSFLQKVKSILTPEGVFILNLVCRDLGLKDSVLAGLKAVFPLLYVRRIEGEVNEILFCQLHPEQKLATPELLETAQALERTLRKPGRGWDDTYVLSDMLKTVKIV
UniProt Q8N3F8: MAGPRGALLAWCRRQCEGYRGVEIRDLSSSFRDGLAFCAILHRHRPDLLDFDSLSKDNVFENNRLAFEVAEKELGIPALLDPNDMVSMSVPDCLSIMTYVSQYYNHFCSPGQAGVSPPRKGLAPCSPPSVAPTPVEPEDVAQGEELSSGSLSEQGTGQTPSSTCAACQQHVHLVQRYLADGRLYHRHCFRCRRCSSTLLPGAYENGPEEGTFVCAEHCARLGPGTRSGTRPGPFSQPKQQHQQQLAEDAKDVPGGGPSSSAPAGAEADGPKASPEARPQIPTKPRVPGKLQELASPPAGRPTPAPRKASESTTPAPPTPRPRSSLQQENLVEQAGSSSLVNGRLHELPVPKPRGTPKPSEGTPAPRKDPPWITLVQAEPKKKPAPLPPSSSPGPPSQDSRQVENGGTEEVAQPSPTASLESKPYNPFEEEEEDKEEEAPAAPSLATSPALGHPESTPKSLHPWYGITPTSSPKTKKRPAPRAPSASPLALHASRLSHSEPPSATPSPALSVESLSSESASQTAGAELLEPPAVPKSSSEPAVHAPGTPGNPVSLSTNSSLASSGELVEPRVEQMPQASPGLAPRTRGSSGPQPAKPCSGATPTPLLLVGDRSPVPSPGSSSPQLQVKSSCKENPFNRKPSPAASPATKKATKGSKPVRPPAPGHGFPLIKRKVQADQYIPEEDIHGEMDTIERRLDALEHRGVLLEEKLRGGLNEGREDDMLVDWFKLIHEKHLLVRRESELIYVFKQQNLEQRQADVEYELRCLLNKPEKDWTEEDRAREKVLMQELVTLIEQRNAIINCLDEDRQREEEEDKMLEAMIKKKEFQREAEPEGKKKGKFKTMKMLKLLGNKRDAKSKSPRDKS

Target	NP40-soluble protein abundance (concentration: 0.1mM)	NP40-soluble protein abundance (concentration: 0.5mM)	NP40-soluble protein abundance (concentration: 1mM)	NP40-soluble protein abundance (concentration: 2mM)	NP40-soluble protein abundance (concentration: 4mM)	NP40-soluble protein abundance (concentration: 6mM)	NP40-soluble protein abundance (concentration: 8mM)	NP40-soluble protein abundance (concentration: 10mM)
MZB1 (UniProt Q8WU39)	0.874 ± 0.068	0.886 ± 0.087	0.937 ± 0.064	0.903 ± 0.078	0.891 ± 0.077	0.892 ± 0.097	0.866 ± 0.13	0.948 ± 0.065
UniProt Q8WU10 and related entries	1.07 ± 0.1	1.05 ± 0.071	0.971 ± 0.07	1.01 ± 0.096	1.03 ± 0.075	1.01 ± 0.048	1 ± 0.02	0.967 ± 0.12
LIX1L (UniProt Q8IVB5)	0.994 ± 0.051	0.952 ± 0.083	0.98 ± 0.07	0.942 ± 0.076	0.938 ± 0.083	0.926 ± 0.1	0.893 ± 0.089	0.927 ± 0.079
NOC3L (UniProt Q8WTT2)	1.03 ± 0.051	1.01 ± 0.028	1.11 ± 0.039	1.2 ± 0.047	1.31 ± 0.069	1.34 ± 0.064	1.35 ± 0.075	1.46 ± 0.087
KBTBD8 (UniProt Q8NFY9)	1.09 ± 0.11	1.15 ± 0.061	1.04 ± 0.076	0.984 ± 0.089	1.01 ± 0.059	1.01 ± 0.097	1.01 ± 0.13	1.03 ± 0.13
DNAJB14 (UniProt Q8TBM8)	0.99 ± 0.037	0.925 ± 0.04	1 ± 0.052	0.988 ± 0.058	1.03 ± 0.063	0.972 ± 0.063	1.046 ± 0.0057	1.03 ± 0.041
UniProt Q8N0Y2 and related entries	1.19 ± 0.042	0.984 ± 0.037	1.14 ± 0.054	1.02 ± 0.052	0.995 ± 0.046	0.953 ± 0.065	1.02 ± 0.031	0.948 ± 0.048
TTC39C (UniProt Q8N584)	0.959 ± 0.043	1.01 ± 0.074	0.969 ± 0.02	0.925 ± 0.054	0.888 ± 0.047	0.927 ± 0.032	0.888 ± 0.022	0.886 ± 0.038
Q86WV7 and related entries (UniProt Q96MW1)	0.875 ± 0.052	0.837 ± 0.048	1.04 ± 0.054	1 ± 0.067	0.989 ± 0.036	0.997 ± 0.11	0.942 ± 0.12	1.02 ± 0.051
LRRC47 (UniProt Q8N1G4)	0.981 ± 0.028	0.962 ± 0.046	0.976 ± 0.036	0.962 ± 0.051	0.98 ± 0.034	0.985 ± 0.045	1.01 ± 0.04	0.996 ± 0.069
UniProt Q8IZA0 and related entries	0.987 ± 0.051	0.917 ± 0.087	1.05 ± 0.059	0.976 ± 0.08	0.991 ± 0.11	1.02 ± 0.096	1.02 ± 0.047	0.948 ± 0.05
NEK9 (UniProt Q8TD19)	1.02 ± 0.016	1.03 ± 0.018	0.977 ± 0.033	0.996 ± 0.046	1.02 ± 0.037	0.976 ± 0.035	0.984 ± 0.036	0.96 ± 0.01
MLKL (UniProt Q8NB16)	0.98 ± 0.044	0.962 ± 0.052	0.896 ± 0.062	0.908 ± 0.035	0.873 ± 0.047	0.874 ± 0.032	0.868 ± 0.045	0.837 ± 0.024
NUBPL (UniProt Q8TB37)	1 ± 0.055	1.02 ± 0.036	0.959 ± 0.04	0.964 ± 0.047	0.945 ± 0.042	0.947 ± 0.053	0.911 ± 0.017	0.936 ± 0.045
UniProt Q8IXJ6 and related entries	0.995 ± 0.044	0.978 ± 0.047	0.909 ± 0.068	0.92 ± 0.057	0.93 ± 0.053	0.916 ± 0.071	0.916 ± 0.05	0.955 ± 0.071
TMEM173 (UniProt Q86WV6)	0.843 ± 0.015	0.97 ± 0.055	0.869 ± 0.064	0.918 ± 0.084	0.852 ± 0.066	0.904 ± 0.057	0.832 ± 0.026	0.928 ± 0.042
VPS52 (UniProt Q8N1B4)	1.04 ± 0.034	1.126 ± 0.0098	1.02 ± 0.068	0.998 ± 0.099	0.992 ± 0.13	0.969 ± 0.06	0.957 ± 0.074	0.931 ± 0.091
UBASH3B (UniProt Q8TF42)	1.07 ± 0.065	1.06 ± 0.077	0.974 ± 0.033	0.986 ± 0.091	1.01 ± 0.049	0.948 ± 0.069	0.957 ± 0.055	0.929 ± 0.083
UniProt Q8IX12 and related entries	0.993 ± 0.042	0.985 ± 0.027	1.004 ± 0.0041	0.996 ± 0.03	1.08 ± 0.056	1.12 ± 0.06	1.17 ± 0.077	1.14 ± 0.059
UniProt Q8NEC7 and related entries	1.07 ± 0.1	0.978 ± 0.026	0.97 ± 0.091	0.917 ± 0.09	1.06 ± 0.099	0.937 ± 0.2	1.04 ± 0.16	1.03 ± 0.016
UniProt Q8NDV3 and related entries	0.926 ± 0.073	1.06 ± 0.053	1 ± 0.092	0.958 ± 0.11	0.989 ± 0.14	1.02 ± 0.1	1.03 ± 0.11	0.959 ± 0.12
UniProt Q8IUR7 and related entries	1.06 ± 0.05	1.06 ± 0.11	1.09 ± 0.14	1.13 ± 0.17	1.17 ± 0.2	1.16 ± 0.21	1.18 ± 0.27	1.11 ± 0.18
UniProt Q8N6R0 and related entries	1.1 ± 0.087	1.1 ± 0.12	1.04 ± 0.09	1.05 ± 0.11	1.05 ± 0.049	1.03 ± 0.1	1.02 ± 0.045	0.997 ± 0.056
UniProt Q8NFF5 and related entries	0.957 ± 0.049	0.924 ± 0.06	0.944 ± 0.012	0.893 ± 0.057	0.834 ± 0.024	0.932 ± 0.016	0.852 ± 0.029	0.855 ± 0.045
DCP1B (UniProt Q8IZD4)	0.969 ± 0.036	0.92 ± 0.078	1.02 ± 0.032	0.959 ± 0.074	0.939 ± 0.067	0.993 ± 0.098	0.996 ± 0.048	1.02 ± 0.066
UniProt Q8IXQ6 and related entries	1.01 ± 0.25	1.05 ± 0.2	1.01 ± 0.12	1.09 ± 0.22	1.06 ± 0.2	1.03 ± 0.18	0.981 ± 0.28	0.95 ± 0.043
CCDC25 (UniProt Q86WR0)	0.954 ± 0.079	0.939 ± 0.057	0.892 ± 0.051	0.842 ± 0.071	0.855 ± 0.1	0.842 ± 0.084	0.876 ± 0.059	0.863 ± 0.068
UniProt Q8TDJ6 and related entries	1.04 ± 0.039	1.17 ± 0.13	1.09 ± 0.11	1.19 ± 0.14	1.19 ± 0.12	1.13 ± 0.19	1.23 ± 0.19	1.18 ± 0.17
UniProt Q8N8A2 and related entries	1.12 ± 0.033	1.09 ± 0.11	1.05 ± 0.1	1.18 ± 0.083	1.1 ± 0.12	1.1 ± 0.13	1.1 ± 0.16	1.04 ± 0.12
MICALL1 (UniProt Q8N3F8)	1.02 ± 0.066	0.97 ± 0.063	0.962 ± 0.088	0.958 ± 0.1	0.92 ± 0.095	0.931 ± 0.13	0.922 ± 0.065	0.956 ± 0.11

Individual results from the entries so far:
NP40-soluble protein abundance (concentration: 1mM) with KBTBD8 (UniProt Q8NFY9) is entered as 1.04 ± 0.076
NP40-soluble protein abundance (concentration: 0.1mM) with UniProt Q8N8A2 and related entries is entered as 1.12 ± 0.033

Source: the supplement of paper PMC6411743
